Measured values from article doi:10.1101/2020.12.28.423414.
No constants are given. Whether binding was seen depends on the method and setting. In cells and extracts the contact can be indirect. Here binding means that the protein was enriched with, or labelled near, the bait; the list need not be complete.

Chains of the proteins cited; added tags and fusions are not shown.
UniProt Q9FIJ0: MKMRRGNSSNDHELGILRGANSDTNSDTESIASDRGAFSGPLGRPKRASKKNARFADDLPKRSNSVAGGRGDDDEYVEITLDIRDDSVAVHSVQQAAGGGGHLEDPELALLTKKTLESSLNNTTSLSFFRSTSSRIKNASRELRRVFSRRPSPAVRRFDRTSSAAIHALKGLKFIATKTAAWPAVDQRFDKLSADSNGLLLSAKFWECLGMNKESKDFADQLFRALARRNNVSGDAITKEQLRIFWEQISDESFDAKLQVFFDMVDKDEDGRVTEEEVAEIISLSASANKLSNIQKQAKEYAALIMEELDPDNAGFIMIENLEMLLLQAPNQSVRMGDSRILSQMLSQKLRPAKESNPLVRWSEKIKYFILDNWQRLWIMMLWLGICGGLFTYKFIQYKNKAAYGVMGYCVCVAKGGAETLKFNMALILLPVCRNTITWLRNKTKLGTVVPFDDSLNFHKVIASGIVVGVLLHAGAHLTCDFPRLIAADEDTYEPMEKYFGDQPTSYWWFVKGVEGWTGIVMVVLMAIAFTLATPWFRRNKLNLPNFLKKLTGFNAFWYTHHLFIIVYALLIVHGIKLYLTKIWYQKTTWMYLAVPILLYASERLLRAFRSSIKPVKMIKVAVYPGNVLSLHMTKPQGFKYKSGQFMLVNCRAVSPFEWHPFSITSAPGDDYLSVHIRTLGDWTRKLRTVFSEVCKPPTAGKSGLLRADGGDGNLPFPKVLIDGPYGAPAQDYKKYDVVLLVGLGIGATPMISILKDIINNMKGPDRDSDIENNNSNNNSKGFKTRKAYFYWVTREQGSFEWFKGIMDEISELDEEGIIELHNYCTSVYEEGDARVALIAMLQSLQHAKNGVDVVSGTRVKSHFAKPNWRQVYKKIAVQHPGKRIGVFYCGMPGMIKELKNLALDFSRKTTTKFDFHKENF

Key:
[1] = molecular target: 3×FLAG-tagged RBOHD (RESPIRATORY BURST OXIDASE HOMOLOG D) (Arabidopsis thaliana), Q9FIJ0; assay: affinity purification with mass spectrometry; conditions: remark: other sources report otherwise
[2] = molecular target: 3×FLAG-tagged RBOHD (RESPIRATORY BURST OXIDASE HOMOLOG D) (Arabidopsis thaliana) (UniProt Q9FIJ0); assay: affinity purification with mass spectrometry

Binder	binding [1]	binding [2]
CERK1, A8R7E6 24-617 (receptor) KCRTSCPLALASYYLENGTTLSVINQNLNSSIAPYDQINFDPILRYNSNIKDKDRIQMGSRVLVPFPCECQPGDFLGHNFSYSVRQEDTYERVAISNYANLTTMESLQARNPFPATNIPLSATLNVLVNCSCGDESVSKDFGLFVTYPLRPEDSLSSIARSSGVSADILQRYNPGVNFNSGNGIVYVPGRDPNGAFPPFKSSKQDGVGAGVIAGIVIGVIVALLLILFIVYYAYRKNKSKGDSFSSSIPLSTKADHASSTSLQSGGLGGAGVSPGIAAISVDKSVEFSLEELAKATDNFNLSFKIGQGGFGAVYYAELRGEKAAIKKMDMEASKQFLAELKVLTRVHHVNLVRLIGYCVEGSLFLVYEYVENGNLGQHLHGSGREPLPWTKRVQIALDSARGLEYIHEHTVPVYVHRDIKSANILIDQKFRAKVADFGLTKLTEVGGSATRGAMGTFGYMAPETVYGEVSAKVDVYAFGVVLYELISAKGAVVKMTEAVGEFRGLVGVFEESFKETDKEEALRKIIDPRLGDSYPFDSVYKMAELGKACTQENAQLRPSMRYIVVALSTLFSSTGNWDVGNFQNEDLVSLMSGR	binds	
cyclic nucleotide-gated ion channel CNGC4 (protein, UniProt Q94AS9 1-694) MATEQEFTRASRFSRDSSSVGYYSEEDNTEEEDEEEEEMEEIEEEEEEEEEEDPRIGLTCGGRRNGSSNNNKWMMLGRILDPRSKWVREWNKVFLLVCATGLFVDPLFLYTLSVSDTCMCLLVDGWLALTVTALRSMTDLLHLWNIWIQFKIARRWPYPGGDSDGDTNKGGGTRGSTRVAPPYVKKNGFFFDLFVILPLPQVVLWVVIPSLLKRGSVTLVVSVLLVTFLFQYLPKIYHSIRHLRRNATLSGYIFGTVWWGIALNMIAYFVAAHAAGACWYLLGVQRSAKCLKEQCENTIGCDLRMLSCKEPVYYGTTVMVLDRARLAWAQNHQARSVCLDINTNYTYGAYQWTIQLVSSESRLEKILFPIFWGLMTLSTFGNLESTTEWSEVVFNIIVLTSGLLLVTMLIGNIKVFLHATTSKKQAMHLKMRNIEWWMKKRHLPIGFRQRVRNYERQRWAAMRGVDECEMVQNLPEGLRRDIKYHLCLDLVRQVPLFQHMDDLVLENICDRVKSLIFTKGETIQKEGDAVQRMLFVVRGHLQSSQLLRDGVKSCCMLGPGNFSGDELLSWCLRRPFVERLPPSSSTLVTLETTEAFGLDAEDVKYVTQHFRYTFVNEKVKRSARYYSPGWRTWAAVAVQLAWRRYKHRLTLTSLSFIRPRRPLSRCASLGEDKLRLYAAILTSPKPNPDDFDDY		binds
plasma membrane calcium ATPase ACA8 (enzyme, UniProt Q9LF79 1-1074) MTSLLKSSPGRRRGGDVESGKSEHADSDSDTFYIPSKNASIERLQQWRKAALVLNASRRFRYTLDLKKEQETREMRQKIRSHAHALLAANRFMDMGRESGVEKTTGPATPAGDFGITPEQLVIMSKDHNSGALEQYGGTQGLANLLKTNPEKGISGDDDDLLKRKTIYGSNTYPRKKGKGFLRFLWDACHDLTLIILMVAAVASLALGIKTEGIKEGWYDGGSIAFAVILVIVVTAVSDYKQSLQFQNLNDEKRNIHLEVLRGGRRVEISIYDIVVGDVIPLNIGNQVPADGVLISGHSLALDESSMTGESKIVNKDANKDPFLMSGCKVADGNGSMLVTGVGVNTEWGLLMASISEDNGEETPLQVRLNGVATFIGSIGLAVAAAVLVILLTRYFTGHTKDNNGGPQFVKGKTKVGHVIDDVVKVLTVAVTIVVVAVPEGLPLAVTLTLAYSMRKMMADKALVRRLSACETMGSATTICSDKTGTLTLNQMTVVESYAGGKKTDTEQLPATITSLVVEGISQNTTGSIFVPEGGGDLEYSGSPTEKAILGWGVKLGMNFETARSQSSILHAFPFNSEKKRGGVAVKTADGEVHVHWKGASEIVLASCRSYIDEDGNVAPMTDDKASFFKNGINDMAGRTLRCVALAFRTYEAEKVPTGEELSKWVLPEDDLILLAIVGIKDPCRPGVKDSVVLCQNAGVKVRMVTGDNVQTARAIALECGILSSDADLSEPTLIEGKSFREMTDAERDKISDKISVMGRSSPNDKLLLVQSLRRQGHVVAVTGDGTNDAPALHEADIGLAMGIAGTEVAKESSDIIILDDNFASVVKVVRWGRSVYANIQKFIQFQLTVNVAALVINVVAAISSGDVPLTAVQLLWVNLIMDTLGALALATEPPTDHLMGRPPVGRKEPLITNIMWRNLLIQAIYQVSVLLTLNFRGISILGLEHEVHEHATRVKNTIIFNAFVLCQAFNEFNARKPDEKNIFKGVIKNRLFMGIIVITLVLQVIIVEFLGKFASTTKLNWKQWLICVGIGVISWPLALVGKFIPVPAAPISNKLKVLKFWGKKKNSSGEGSL		binds
